Assay: general procedure: Fmoc solid-phase peptide synthesis; Fmoc-ramage-resin (loading approx. 0.5 mmol/g) for unsubstituted amides; 2-chloro-trityl-resin (approx. 0.5 mmol/g) for; TBTU / DIPEA
Details: whole synthesis; for isolated yield: scale of the general procedure approx. 2.0 g resin (loading approx. 0.5 mmol/g)

Substance	isolated mass (2TFA)	isolated yield (2TFA)	isolated mass (2 AcOH)	isolated yield (2 AcOH)
PhBu-His-D-Phe-Arg-D-2NaphAla-NH2 *2TFA	307 mg	31%	–	–
PhBu-His-D-Phe-Dab-Trp-NH2 *2TFA	374 mg	37%	–	–
PhBu-His-D-Phe-Arg-Trp-N(Propyl)2 *2TFA	262 mg	33%	–	–
PhBu-His-D-Phe-Arg-Trp-NH—CH2—CH(OH)—CH2OH *2TFA	227 mg	18%	–	–
PhBu-His-D-Phe-Arg-L-2NaphAla-NH2 *2TFA	425 mg	41%	–	–
PhBu-His-D-Phe-Arg-Trp-NH-Octyl *2TFA	279 mg	28%	–	–
PhBu-His-D-Phe-Arg-Trp-NH-Bn *2TFA	209 mg	11%	–	–
4-MeO—PhBu-His-D-Phe-Arg-Trp-NH2 × 2 AcOH	–	–	386 mg	13%

Reference: US20200308222A1 (DSM IP ASSETS B.V., priority 2017, published 2020)
